The whole screen tested about 320,000 compounds, of which about 2,100 (0.66%) were called active. The inconclusive results got no clear call from the source; some entries with a clear call stand among them for comparison. Calls come from the whole dose curve; as a rule, active = well fitted inhibition curve with a large enough effect in the signal ratio, with a control signal flat (not every such curve was filed as active); inconclusive = small, poorly fitted or top-dose-only effect, or effect the other way, or a change in a side signal; inactive = flat fitted curve, though single readings scatter; the % refers to the signal ratio. A potency beside an inconclusive call is a rough fit, not a confirmed value.
experiment: qHTS Assay for Lipid Storage Modulators in Drosophila S3 Cells; conditions: BODIPY lipid droplet fluorescence, 18-24 h, cells fed with added oleic acid; lipid storage change, negative = inhibition: at 46.1 µM (top of the series) unless noted
How it was run: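 Drosophila S3 cells loaded with oleic acid (400 uM, as added) and compounds at several concentrations; lipid droplets imaged by 488-nm laser-scanning cytometry, 500–530 nm intensity and object ratio to cell channel. Percent activity normalized to 20 uM Triacsin C.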
% is set by controls: 0 for no effect and ±100 for the full control effect; potency is the fitted concentration of half-maximal effect.

Compound | Potency | lipid storage change, negative = inhibition
COc1ccc(Nc2ccc3c(c2)=NC2(CCCCC2)[N+]=3[O-])cc1 | inconclusive: 4.11 µM [falling, single point] | –
COc1cccc(C(=O)Nc2ccc(S(=O)(=O)NCc3ccco3)cc2)c1 | inconclusive: 25.9 µM [activator, single point] | –
CCCc1cc(=O)[nH]c(SCC(=O)N2CCN(c3ccccc3)CC2)n1 | – | inconclusive: 11.9%
COc1cc2c(cc1OC)C(COc1ccc(F)cc1)N(C(C)=O)CC2 (stereo not given) | – | inactive
CCOC(=O)c1sc(NC(=O)C(OC(C)=O)c2ccccc2)nc1C (stereo not given) | – | inconclusive: 40.8%
CN(Cc1ccc(F)cc1)C(=O)c1cccc(S(=O)(=O)N2CCN(c3ccc(F)cc3)CC2)c1 | – | inconclusive: 1.51%
COC(=O)c1c(C(=O)OC)c2n(c1C)CCS2 | – | inconclusive: -5.02%
CCOc1ccc(N(CC(=O)NC2CCCC2)C(=O)CCC(=O)Nc2ccccn2)cc1 | – | inconclusive: 18.1%
CN(C)c1nn(C(=O)Nc2cccc(C(F)(F)F)c2)cc1-c1ccccc1 | – | inconclusive: 10.2%
O=C(OCCN1CCN(c2ncc(C(F)(F)F)cc2Cl)CC1)c1ccc(Cl)cc1 | – | inconclusive: 24%
OCCOCCOc1ccccc1OCCOCCO | – | inconclusive: -4.7%
Cc1cccc(-n2c(SCC(=O)N3CCN(c4ccccn4)CC3)nnc2N2CCOCC2)c1 | inconclusive: 1.16 µM [falling, full curve, poor fit] | –
CCN1CCN(c2cc(C)c3cc(NC(=O)c4cccs4)ccc3n2)CC1 | inconclusive: 2.91 µM [activator, single point] | –
CCCCN(CC(=O)Nc1c(C)cccc1CC)C(=O)SCC | inconclusive: 2.91 µM [activator, partial curve] | –
Cc1noc(C)c1COC(=O)CCCc1c[nH]c2ccccc12 | – | inconclusive: 119%
Cc1ccc(C)c(N(C)C(=O)CCS(=O)(=O)c2cccc3nonc23)c1 | – | inconclusive: 82.3%
Cc1ccc(C)c2nc3sc(C(=O)N4CCCc5ccccc54)c(N)c3cc12 | inconclusive: 14.6 µM [falling, single point] | –
COc1ccc(C(=O)N/N=C(\C)CC(=O)NC2CCCCC2)c(OC)c1 | inconclusive: 6.51 µM [activator, single point] | –
Cc1n[nH]c(C)c1S(=O)(=O)N(CC(=O)Nc1ccc2c(c1)OCCO2)c1ccc(C(C)C)cc1 | – | inconclusive: 5.25% [at 9.22 µM]
CN1CCN(NC(=O)c2cc(-c3ccc(Cl)s3)nc3ccccc23)CC1 | inconclusive: 0.326 µM [activator, full curve, poor fit] | –

Part of the list above, field by field:
Cc1noc(C)c1COC(=O)CCCc1c[nH]c2ccccc12
  lipid storage change, negative = inhibition: inconclusive: 119%
Cc1ccc(C)c(N(C)C(=O)CCS(=O)(=O)c2cccc3nonc23)c1
  lipid storage change, negative = inhibition: inconclusive: 82.3%

From PubChem BioAssay AID2685 (National Center for Advancing Translational Sciences (NCATS), 2010)
